Drawing on the odorant receptor screen of Mainland et al. (2015), this text covers odorant receptor activation for 14 compounds.

Chains of the proteins cited; added tags and fusions are not shown. Chains listed by the source or under a name are the forms on record and can include a tag or linker.
pseudo, as listed by the source: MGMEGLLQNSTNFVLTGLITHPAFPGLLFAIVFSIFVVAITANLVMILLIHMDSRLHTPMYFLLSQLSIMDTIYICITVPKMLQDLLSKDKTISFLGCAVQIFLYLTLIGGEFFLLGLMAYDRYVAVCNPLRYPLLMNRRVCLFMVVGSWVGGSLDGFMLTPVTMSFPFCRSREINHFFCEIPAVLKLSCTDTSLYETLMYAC

Values joined by “and” are separate entries in the source; they are usually repeats but may differ in a detail not shown here. Equal values may be shown once. The list shows a part of the results. Each value is one well over the wells without odorant, computed here; the data are noisy.

Test systems include OR9K2 clone 1389; OR9Q1 A2V clone 1713; OR9Q2 C179R clone 1310; OR9Q2 clone 1177; OR9Q2 clone 1501; pseudo clone 1035; pseudo clone 1218; pseudo clone 1380; pseudo clone 1384; pseudo clone 1417.
What all share (experiment): odorant receptor activation (CRE luciferase / Renilla) (fold of no-odor wells); higher = more activation
Common to all, as to details: 100 µM

For the compound `CC(=O)OCC=C(C)CCC=C(C)C` [geranyl acetate], the odorant receptor activation in the experiment with OR9K2 clone 1389 was 1.24; in the experiment with OR9Q1 A2V clone 1713, 0.94; with OR9Q2 C179R clone 1310, 0.963 and 0.977; in the experiment with OR9Q2 clone 1177, 1.01; with OR9Q2 clone 1501, 1.14 and 1.27; with pseudo clone 1035 it was 2.25. Further, the odorant receptor activation was 0.892 in the experiment on pseudo clone 1218, 1.73 in the experiment with pseudo clone 1380, 1.28 in the experiment on pseudo clone 1384 and 1.07 in the experiment on pseudo clone 1417.

Turning to `CC12C=CCC1C1CCC3CC(=O)CCC3(C)C1CC2` (centres undefined) [androstenone], the odorant receptor activation in the experiment with OR9K2 clone 1389 is 1.38; in the experiment on OR9Q2 C179R clone 1310 it was 1.16; in the experiment on OR9Q2 clone 1177 it was 5.82; in the experiment with OR9Q2 clone 1501, 1.07; in the experiment on pseudo clone 1035 it was 1.39; in the experiment on pseudo clone 1218, 7.18. Besides, the odorant receptor activation in the experiment with pseudo clone 1380 amounted to 0.902; with pseudo clone 1384 it was 1.23; in the experiment on pseudo clone 1417, 1.05.

For `COc1cc(C)ccc1O` [2-methoxy-4-methylphenol], the odorant receptor activation came out at 2.4 with OR9K2 clone 1389; 0.662 in the experiment with OR9Q1 A2V clone 1713; 0.923 in the experiment with OR9Q2 C179R clone 1310; 0.829 in the experiment on OR9Q2 clone 1177; 1.34 in the experiment on OR9Q2 clone 1501; 1.59 in the experiment on pseudo clone 1035. Besides, the odorant receptor activation with pseudo clone 1218 worked out at 1.12; in the experiment on pseudo clone 1380, 1.09; in the experiment on pseudo clone 1384 it was 1.12; in the experiment on pseudo clone 1417, 0.957.

Take `c1cnccn1` [pyrazine]: the odorant receptor activation is 1.14 in the experiment with OR9K2 clone 1389; 1.01 in the experiment on OR9Q1 A2V clone 1713; 0.689 with OR9Q2 C179R clone 1310; 0.839 with OR9Q2 clone 1177; 0.743 in the experiment with OR9Q2 clone 1501; 0.996 with pseudo clone 1035. Further, the odorant receptor activation in the experiment on pseudo clone 1218 stood at 0.896; with pseudo clone 1380, 1.5; in the experiment on pseudo clone 1384, 1.04; with pseudo clone 1417 it was 1.23.

`CC12CCC(CC1)C(C)(C)O2` [cineole]: the odorant receptor activation came out at 0.198 with OR9K2 clone 1389; 0.879 in the experiment with OR9Q1 A2V clone 1713; 1.1 with OR9Q2 C179R clone 1310; 0.994 in the experiment with OR9Q2 clone 1177; 0.959 with OR9Q2 clone 1501; 0.745 in the experiment with pseudo clone 1035. For the same compound, the odorant receptor activation in the experiment with pseudo clone 1218 worked out at 0.929; in the experiment on pseudo clone 1380 it was 0.258; in the experiment with pseudo clone 1384 it was 0.157; in the experiment on pseudo clone 1417 it was 0.219.

Regarding `CC1COCc2cc3c(cc21)C(C)(C)C(C)C3(C)C` (centres undefined) [galaxolide], the odorant receptor activation was 4.21 with OR9K2 clone 1389; 1.15 and 3.11 with OR9Q2 C179R clone 1310; 0.818 in the experiment with OR9Q2 clone 1177; 5.64 and 3.8 in the experiment on OR9Q2 clone 1501; 4.26 in the experiment with pseudo clone 1035; 0.914 with pseudo clone 1218. The results for the odorant receptor activation with pseudo clone 1380, in the experiment with pseudo clone 1384 and in the experiment on pseudo clone 1417 were 4.53, 4.07 and 3.41, respectively.

As for `CC(C)(C)c1ccc(CCC=O)cc1` [bourgeonal], the odorant receptor activation in the experiment on OR9K2 clone 1389 is 0.212; in the experiment on OR9Q2 C179R clone 1310 it was 0.829; with OR9Q2 clone 1177, 0.754; with OR9Q2 clone 1501, 1.05; in the experiment on pseudo clone 1035, 0.937; in the experiment with pseudo clone 1218, 0.665. The odorant receptor activation was found to be 0.224 with pseudo clone 1380, 0.166 in the experiment on pseudo clone 1384 and 0.229 with pseudo clone 1417.

For the compound `CCCCCCC=O` [heptaldehyde], the odorant receptor activation in the experiment on OR9K2 clone 1389 was 0.993 and 0.813; with OR9Q1 A2V clone 1713 it was 0.916; in the experiment on OR9Q2 C179R clone 1310, 0.992 and 1.35 and 0.954; in the experiment on OR9Q2 clone 1177, 0.384 and 1.03; in the experiment with pseudo clone 1035 it was 0.718 and 1.47; in the experiment with pseudo clone 1218, 0.427 and 1.19. Also, the odorant receptor activation in the experiment with pseudo clone 1380 was 1.13 and 0.755; with pseudo clone 1384 it was 1.2 and 0.912; in the experiment with pseudo clone 1417 it was 1.08 and 0.856.

`CCCCCCCCCCC=O` [undecanal]: the odorant receptor activation in the experiment with OR9K2 clone 1389 amounted to 1.01; in the experiment with OR9Q1 A2V clone 1713, 1.05; in the experiment with OR9Q2 C179R clone 1310, 0.825; with OR9Q2 clone 1177, 0.893; with OR9Q2 clone 1501, 1.02; with pseudo clone 1035, 1.1. The odorant receptor activation in the experiment on pseudo clone 1218 turned out to be 0.892; in the experiment with pseudo clone 1380, 0.94; with pseudo clone 1384, 1.27; in the experiment on pseudo clone 1417, 1.06.

For `CC1=NC(C)SC1C` (centres undefined), the odorant receptor activation with OR9K2 clone 1389 was 0.947; with OR9Q2 C179R clone 1310, 2.33; in the experiment on OR9Q2 clone 1177, 0.952; in the experiment with OR9Q2 clone 1501, 1.37 and 0.86; with pseudo clone 1035 it was 0.566; in the experiment with pseudo clone 1218, 1.22. The odorant receptor activation in the experiment with pseudo clone 1380 came out at 1.12; in the experiment on pseudo clone 1384, 0.926; in the experiment with pseudo clone 1417, 1.11.

`O=C1CCCCC1` [Cyclohexanone]: the odorant receptor activation with OR9K2 clone 1389 is 0.803; in the experiment on OR9Q2 C179R clone 1310 it was 1.09; with OR9Q2 clone 1177, 1.05; in the experiment with OR9Q2 clone 1501, 1.23 and 0.754; with pseudo clone 1035 it was 0.863; with pseudo clone 1218, 0.908. The odorant receptor activation stood at 0.847 in the experiment with pseudo clone 1380, 0.768 in the experiment with pseudo clone 1384 and 0.873 in the experiment on pseudo clone 1417.

For the compound `CC1CCC(C(C)C)C(O)C1` (single isomer, unassigned; (-)) [(-)-menthol], the odorant receptor activation in the experiment on OR9K2 clone 1389 was 1.18; in the experiment on OR9Q1 A2V clone 1713 it was 0.81; in the experiment on OR9Q2 C179R clone 1310 it was 0.597; in the experiment on OR9Q2 clone 1177, 0.789; in the experiment with OR9Q2 clone 1501, 2.95; with pseudo clone 1035, 3.1. The odorant receptor activation in the experiment with pseudo clone 1218 was found to be 1.07; in the experiment with pseudo clone 1380, 0.9; with pseudo clone 1384, 0.591; in the experiment on pseudo clone 1417 it was 0.554.

Regarding `C=CCSCC=C` [diallyl sulfide], the odorant receptor activation amounted to 1.36 in the experiment with OR9K2 clone 1389; 0.816 in the experiment with OR9Q1 A2V clone 1713; 0.897 with OR9Q2 C179R clone 1310; 0.886 in the experiment with OR9Q2 clone 1177; 1.24 in the experiment with OR9Q2 clone 1501; 0.778 in the experiment on pseudo clone 1035. The odorant receptor activation in the experiment with pseudo clone 1218 worked out at 1.15; with pseudo clone 1380, 1.32; in the experiment with pseudo clone 1384 it was 0.938; in the experiment on pseudo clone 1417, 1.64.

For `CCCCCCCCC=O` [nonyl aldehyde], the odorant receptor activation was found to be 0.94 with OR9K2 clone 1389; 0.854 with OR9Q1 A2V clone 1713; 0.993 in the experiment with OR9Q2 C179R clone 1310; 1.13 with OR9Q2 clone 1177; 0.943 in the experiment with OR9Q2 clone 1501; 1 in the experiment on pseudo clone 1035. Moreover, the odorant receptor activation stood at 1.12 with pseudo clone 1218, 0.834 in the experiment on pseudo clone 1380, 1.04 in the experiment with pseudo clone 1384 and 0.632 in the experiment with pseudo clone 1417.
